Laboratory results as given in the supplement of paper PMC3334620.
The full ranking holds about 33,000 sequences; the median of “E-score (-0.5 to 0.5)” is about -0.0059, and the highest 2% start at about 0.26. Some of the results follow.

Target: T1, Cin5 (UniProt P40917)
T1 sequence: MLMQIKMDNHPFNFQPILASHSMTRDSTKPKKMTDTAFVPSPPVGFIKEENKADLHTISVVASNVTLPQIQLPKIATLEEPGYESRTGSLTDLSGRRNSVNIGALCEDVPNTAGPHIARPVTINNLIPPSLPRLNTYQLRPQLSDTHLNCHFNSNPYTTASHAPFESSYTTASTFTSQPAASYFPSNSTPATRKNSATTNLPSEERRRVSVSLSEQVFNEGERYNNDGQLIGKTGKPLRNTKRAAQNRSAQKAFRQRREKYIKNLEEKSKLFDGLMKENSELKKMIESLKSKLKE
Test: PBM E-score (8-mer binding enrichment) (E-score (-0.5 to 0.5)); higher = stronger / more preferred TF binding
Conditions: protein concentration: 100 nM; construct: GST-full length
How it was run: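 Each ungapped eight-base word and its reverse complement, pooled, received an E-score from the Universal PBM Analysis Suite. Underlying scans, normalised with masliner, recorded fluorescent anti-GST bound to GST-tagged yeast transcription factors. These were applied at about 100-200 nM to universal all-10-mer Agilent arrays double-stranded by primer extension.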

Row | Sequence | PBM E-score
1 | GATGGATA | 0.16
2 | AATGCGAA | -0.0575
3 | GTACGTAA | 0.397
4 | AACAGAGT | 0.0745
5 | AACCTGTC | -0.0905
6 | CTGATGAA | 0.0259
7 | TGTAATAA | 0.194
8 | ATTCGACC | -0.214
9 | CGCGTTCC | -0.0726
10 | GAGTGAGA | -0.0316
11 | AGTTGGGA | -0.126
12 | ATAGCCAT | 0.137
13 | ACGACACA | 0.0457
14 | CTACCAGA | 0.00453
15 | ATAGCTCG | -0.0782
16 | CGCAGCCA | -0.2
17 | TCACAAGA | 0.0107
18 | ATGCGTAC | 0.0118
19 | GTTTGCGA | 0.0898
20 | CGCCGAAC | 0.0689
21 | ATAACCGA | -0.00875
22 | CAAGGTGA | -0.0314
23 | ATATGTCA | 0.19
24 | GCAGTGCC | -0.286
25 | GGTCACGA | 0.0234

Part of the list above, field by field.
AACAGAGT
  PBM E-score = 0.0745
AACCTGTC
  PBM E-score = -0.0905
CTGATGAA
  PBM E-score = 0.0259
TGTAATAA
  PBM E-score = 0.194

Next part:

Row | Sequence | PBM E-score
26 | CGGCAGAA | -0.0233
27 | TGGAACCA | 0.104
28 | CAAGTAAG | -0.0336
29 | AAACGATT | 0.187
30 | CAGCGAGG | -0.174
31 | GCATCTGA | -0.131
32 | CCATTTGC | -0.0122
33 | ACGAACCA | 0.231
34 | AGATTCCT | -0.119
35 | GCCTATAC | -0.169
36 | GAGTAGAC | -0.00052
37 | CCAAACAG | -0.00826
38 | CAAAGCTC | -0.304
39 | GCCAGGAA | -0.152
40 | AGTGACAT | 0.164
41 | GAGCGCTA | -0.013
42 | GACCGTCC | -0.276
43 | AACACGTA | 0.088
44 | AACGTAGG | -0.0785
45 | GTTATCCA | 0.135
46 | CCATAGAC | -0.0765
47 | AATTCATA | 0.167
48 | CCAGTTAA | 0.134
49 | ACTCTGCC | -0.0409
50 | CTGTTTAC | 0.0607

Row | Sequence | PBM E-score
51 | CTCCTAAC | -0.0304
52 | ACCGAGAA | 0.083
53 | ACGCACTG | -0.137
54 | AAAAGACA | 0.193
55 | GAGTGGGA | -0.147
56 | CCACGCGG | -0.212
57 | CCCATTAA | -0.0763
58 | AATCATCA | 0.229
59 | CATGGAAA | 0.212
60 | ACAGCAGG | -0.022
61 | ATGACGGA | 0.16
62 | GCTATTTA | 0.0457
63 | GAAGCATA | -0.101
64 | CGTGTATA | 0.222
65 | ATAGCGCA | 0.0568
66 | AGTGAATG | 0.248
67 | AAGCGAAG | -0.0254
68 | ATGTCTTG | 0.0456
69 | ACAATCAT | 0.159
70 | GCGCAAGA | 0.0403
71 | TACGATCA | 0.184
72 | CCCTGAAC | 0.064
73 | GACTCTTA | 0.156
74 | CTCTGAGA | -0.0821
75 | GGCGGAAC | 0.0816

Laid out differently: results already given.
Row	Sequence	PBM E-score
8	ATTCGACC	-0.214
9	CGCGTTCC	-0.0726
10	GAGTGAGA	-0.0316
11	AGTTGGGA	-0.126
12	ATAGCCAT	0.137
13	ACGACACA	0.0457

Part of the list above, tab-delimited.
Row	Sequence	PBM E-score
71	TACGATCA	0.184
72	CCCTGAAC	0.064
73	GACTCTTA	0.156

Following part

Row | Sequence | PBM E-score
76 | AGGCGTCC | -0.121
77 | CCATGGCC | -0.128
78 | CATCCAGC | -0.0337
79 | AACAAAAG | -0.0456
80 | GAGCTAGA | -0.17
81 | CCTATTGA | -0.0739
82 | AGACCTAT | -0.028
83 | AAGCCCAT | 0.0327
84 | AACATCAT | 0.159
85 | AAGGCCAA | -0.263
86 | GCTCACCC | -0.199
87 | CTGCCTTC | -0.0771
88 | CGCGAAAG | 0.0342
89 | CGGGTCAG | 0.00547
90 | GATGAGAC | 0.0922
91 | CTTACTAA | 0.313
92 | GACGGAGA | -0.0903
93 | ACTAACCC | 0.0917
94 | TCGTGTAA | 0.0987
95 | AGTCATCG | -0.024
96 | CTGAGAAG | -0.0987
97 | ATTGCCCA | 0.0539
98 | TGACGCCA | -0.133
99 | GAGCCGAC | -0.245
100 | CGCCTATA | 0.0177

Row | Sequence | PBM E-score
101 | CATATGGA | 0.0562
102 | GCCTTAGA | -0.135
103 | CCTACACC | -0.072
104 | AAATTAAT | 0.107
105 | TGTACAAA | 0.174
106 | AGCTCTGC | -0.271
107 | AATGTAGA | 0.0731
108 | AGCTTGCG | -0.231
109 | CTGTATAA | 0.161
110 | AGAGTTAG | 0.0104
111 | ATTCATAG | 0.187
112 | GCTTGTAC | 0.052
113 | CCGGAGCA | -0.164
114 | ACCGAACA | -0.00929
115 | CAATTGGC | 0.165
116 | GCGCCAGA | -0.18
117 | TCCATTAA | 0.0123
118 | AAAGTGCG | 0.0544
119 | TTAGCAAA | 0.16
120 | GTATCCAC | -0.00124
121 | GACATAGA | -0.0559
122 | CGTATGCC | -0.12
123 | CTCAAAAG | -0.0668
124 | TACCGCCA | 0.121
125 | AAGCCAGA | -0.069

Row | Sequence | PBM E-score
126 | AACCTAAT | -0.00149
127 | ATTCCGCG | 0.261
128 | ACTACCGA | -0.234
129 | CTGCCTGA | 0.0937
130 | AATATGAA | 0.258
131 | CAGCTCGG | -0.114
132 | ACACGAAT | 0.135
133 | GTATCGGA | 0.0545
134 | GGACGCAC | -0.0295
135 | GTAGAATA | 0.194
136 | TCCACGCA | -0.029
137 | ACGTGACG | 0.0158
138 | CTAGCAAC | 0.0586
139 | CACGGAAA | 0.224
140 | ATCACAAT | 0.206
141 | GAGTCCGC | -0.294
142 | TAGATGGA | 0.00818
143 | CCACAGCC | -0.186
144 | CCCAGTCC | -0.128
145 | CCCACTGA | 0.0409
146 | CACAAAGG | 0.0674
147 | AGCAGACA | -0.0863
148 | ACGGACAT | 0.0391
149 | AATTCAAA | 0.133
150 | ACCAAGGG | -0.177

Row | Sequence | PBM E-score
151 | GGGTGTAA | 0.0982
152 | GGTCGCGA | 0.0913
153 | AGGGTGCC | -0.217
154 | ATAGTCAA | -0.0149
155 | GTGACATA | 0.303
156 | CTCCAGAG | -0.181
157 | CCTCCTAG | -0.131
158 | AGGACTGG | -0.175
159 | ACCTAATA | 0.246
160 | GGACATGA | -0.0754
161 | ATCCTAAA | -0.172
162 | ACAACTAA | 0.217
163 | ACTGACAA | 0.159
164 | GCAAGTCA | 0.115
165 | GTGCTTAA | 0.153
166 | CCAGAAGG | -0.187
167 | ACATTTTC | 0.15
168 | GACCTCCC | -0.341
169 | ATCGTCAC | 0.118
170 | TAGGATAA | 0.139
171 | CGCTAACC | -0.24
172 | TCGGGGCA | -0.00058
